Data source: PubChem BioAssay AID652272 (Drosophila RNAi Screening Center, 2013)
In all, the deposit lists about 21,000 reagents; below is a random part of those that have a named target and a result. Of all reagents, 503 (2.4%) got an active call. 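Raw plate light values, not normalised; calls rest on replicate z-scores that were not deposited; hits include reporter decreases as well as increases.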 Reagents against one gene are numbered here. A plus sign joins genes that one reagent is predicted to hit. Reagent sequences are not shown. The record does not give: the amount of reagent, the time to read-out.

Test: 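Genome-wide knock-down search for components of Hedgehog signalling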 (primary screen)
System: Drosophila clone 8 (Cl8) cells
Reagents: long dsRNA against Drosophila genes
Measurement: 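Plate reader light from a firefly reporter under a ptc promoter fragment that responds to Hedgehog, with Renilla light as transfection reference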
Scale: firefly Hh reporter signal: higher = more ptc reporter light; Renilla reference signal: higher = more Renilla control light
Active means: 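Hit when the z-score averaged over two replicates is under -2 or over +3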
Calls: active = hit: reporter lowered or raised; inactive = not a hit

The first 2 records, to show the layout:
CG34377 #1: firefly Hh reporter signal, replicate 1 = 50453; firefly Hh reporter signal, replicate 2 = 2.31e5; Renilla reference signal, replicate 1 = 11202; Renilla reference signal, replicate 2 = 5144; Call = inactive
CG34377 #2: firefly Hh reporter signal, replicate 1 = 8.42e5; firefly Hh reporter signal, replicate 2 = 1.85e5; Renilla reference signal, replicate 1 = 41898; Renilla reference signal, replicate 2 = 4912; Call = inactive

The listing, repeating the preview:
CG34377 #1: firefly Hh reporter signal, replicate 1 = 50453; firefly Hh reporter signal, replicate 2 = 2.31e5; Renilla reference signal, replicate 1 = 11202; Renilla reference signal, replicate 2 = 5144; Call = inactive
CG34377 #2: firefly Hh reporter signal, replicate 1 = 8.42e5; firefly Hh reporter signal, replicate 2 = 1.85e5; Renilla reference signal, replicate 1 = 41898; Renilla reference signal, replicate 2 = 4912; Call = inactive
CG34377 #3: firefly Hh reporter signal, replicate 1 = 8.18e5; firefly Hh reporter signal, replicate 2 = 1.76e5; Renilla reference signal, replicate 1 = 42528; Renilla reference signal, replicate 2 = 3000; Call = inactive
CG34377 #4: firefly Hh reporter signal, replicate 1 = 8.30e5; firefly Hh reporter signal, replicate 2 = 1.90e5; Renilla reference signal, replicate 1 = 39992; Renilla reference signal, replicate 2 = 3600; Call = inactive
CG34377 #5: firefly Hh reporter signal, replicate 1 = 7.95e5; firefly Hh reporter signal, replicate 2 = 2.08e5; Renilla reference signal, replicate 1 = 40032; Renilla reference signal, replicate 2 = 4800; Call = inactive
CG4004 #1: firefly Hh reporter signal, replicate 1 = 98811; firefly Hh reporter signal, replicate 2 = 80128; Renilla reference signal, replicate 1 = 2125; Renilla reference signal, replicate 2 = 2464; Call = inactive
CG4004 #2: firefly Hh reporter signal, replicate 1 = 75322; firefly Hh reporter signal, replicate 2 = 2.40e5; Renilla reference signal, replicate 1 = 2816; Renilla reference signal, replicate 2 = 9424; Call = inactive
CG32085 #1: firefly Hh reporter signal, replicate 1 = 69322; firefly Hh reporter signal, replicate 2 = 68813; firefly Hh reporter signal, replicate 3 = 62517; Renilla reference signal, replicate 1 = 5283; Renilla reference signal, replicate 2 = 5207; Call = inactive
CG32085 #2: firefly Hh reporter signal, replicate 1 = 71674; firefly Hh reporter signal, replicate 2 = 67451; firefly Hh reporter signal, replicate 3 = 78859; Renilla reference signal, replicate 1 = 5673; Renilla reference signal, replicate 2 = 5942; Call = inactive
CG32085 #3: firefly Hh reporter signal, replicate 1 = 84535; firefly Hh reporter signal, replicate 2 = 27728; firefly Hh reporter signal, replicate 3 = 61780; Renilla reference signal, replicate 1 = 3797; Renilla reference signal, replicate 2 = 5708; Call = inactive
CG18301: firefly Hh reporter signal, replicate 1 = 91216; firefly Hh reporter signal, replicate 2 = 48432; Renilla reference signal, replicate 1 = 2407; Renilla reference signal, replicate 2 = 4432; Call = inactive
Acbp3: firefly Hh reporter signal, replicate 1 = 82535; firefly Hh reporter signal, replicate 2 = 68684; Renilla reference signal, replicate 1 = 7063; Renilla reference signal, replicate 2 = 4320; Call = inactive
Arglu1: firefly Hh reporter signal, replicate 1 = 84971; firefly Hh reporter signal, replicate 2 = 49164; Renilla reference signal, replicate 1 = 2339; Renilla reference signal, replicate 2 = 4953; Call = inactive
E(spl)mdelta-HLH: firefly Hh reporter signal, replicate 1 = 5.23e5; firefly Hh reporter signal, replicate 2 = 1.06e5; Renilla reference signal, replicate 1 = 27248; Renilla reference signal, replicate 2 = 8128; Call = inactive
His1:CG33816 + His1:CG33828 + His1:CG33819 + 21 more: firefly Hh reporter signal, replicate 1 = 44859; firefly Hh reporter signal, replicate 2 = 1.52e5; Renilla reference signal, replicate 1 = 1434; Renilla reference signal, replicate 2 = 6569; Call = inactive
Cyt-c-p: firefly Hh reporter signal, replicate 1 = 1.01e5; firefly Hh reporter signal, replicate 2 = 69929; Renilla reference signal, replicate 1 = 1963; Renilla reference signal, replicate 2 = 5930; Call = inactive
Osi18: firefly Hh reporter signal, replicate 1 = 55975; firefly Hh reporter signal, replicate 2 = 85862; Renilla reference signal, replicate 1 = 1766; Renilla reference signal, replicate 2 = 2536; Call = inactive
CG11131: firefly Hh reporter signal, replicate 1 = 1.37e5; firefly Hh reporter signal, replicate 2 = 2.07e5; Renilla reference signal, replicate 1 = 3654; Renilla reference signal, replicate 2 = 6533; Call = inactive
CG9132: firefly Hh reporter signal, replicate 1 = 75047; firefly Hh reporter signal, replicate 2 = 84027; Renilla reference signal, replicate 1 = 1114; Renilla reference signal, replicate 2 = 1906; Call = active
CG7208: firefly Hh reporter signal, replicate 1 = 6.75e5; firefly Hh reporter signal, replicate 2 = 82185; Renilla reference signal, replicate 1 = 32962; Renilla reference signal, replicate 2 = 2134; Call = inactive
CR31292: firefly Hh reporter signal, replicate 1 = 40534; firefly Hh reporter signal, replicate 2 = 2.24e5; Renilla reference signal, replicate 1 = 4282; Renilla reference signal, replicate 2 = 3665; Call = inactive
